Experimental data from PubChem BioAssay AID493014 (National Center for Advancing Translational Sciences (NCATS), 2011).
In all, about 340,000 compounds went through this assay and about 170 (0.05%) were called active. The inconclusive results got no clear call from the source; some entries with a clear call stand among them for comparison. Calls follow the shape of the dose curve; as a rule, active = well fitted inhibition curve with a large enough effect in the signal ratio, with a control signal flat (not every such curve was filed as active); inconclusive = small, poorly fitted or top-dose-only effect, or effect the other way, or a change in a side signal; inactive = flat fitted curve, though single readings scatter; the % refers to the signal ratio. Where the call is inconclusive, the potency comes from a doubtful curve fit.

Assay: qHTS Assay to Find Inhibitors of Chronic Active B-Cell Receptor Signaling;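 as to activity change, negative = inhibition: plate controls were basal doxycycline-induced cells for no effect and cells given 10 µM MG132 for full effect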
Conditions: ABC-DLBCL IkBa-CBG/CBR reporter, luminescence ratio (green luciferase fused to IkBa over red control in TMD8 lymphoma cells), 4 h; activity change, negative = inhibition: at 46.1 µM (top of the series)
In short: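 Compounds up to 46 uM were incubated four hours with TMD8 cells whose green CBG68 luciferase is fused to IkappaBalpha; red CBR luminescence normalised the signal, and concentration-effect curves were fitted to fusion, red and ratio data.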
Potency is read from the fitted curve at half-maximal effect.

SMILES | activity change, negative = inhibition | Potency
COc1ccc(OC)c(-c2cnc(OC(C)(C)C)nc2OC(C)(C)C)c1 | inconclusive: -6.46% | 
COc1cccc(N2CC(O)Cn3c2nc2c3c(=O)n(CCCc3ccccc3)c(=O)n2C)c1 (centres undefined) | inactive | 
CC(=O)NS(=O)(=O)c1ccc(NC(=O)CSc2ccc(Cl)cc2)cc1 | inactive | 
CCN(CC)c1ccc(/C=N/N2CCN(Cc3ccccc3)CC2)c(O)c1 | inactive | 
CCN(CC)c1ccc(NC(=O)c2ccccc2F)cc1 |  | inconclusive: 20.6 µM [falling, partial curve]
O=C(Nc1ccc(Cl)c([N+](=O)[O-])c1)c1ccc(NCCCN2CCOCC2)c([N+](=O)[O-])c1 | inactive | 
CCCc1nnc(NC(=O)CCC(=O)NC2CCCCCC2)s1 | inactive | 
C/C(=N\OCC(=O)N/N=C/c1ccccc1O)c1cccs1 | inactive | 
c1ccc(N2OCC3Cn4c(nc5ccccc54)C32)cc1 (centres undefined) | inconclusive: -11.2% | 
CC1Cc2cccc3c(O)c(C(=O)c4nn[nH]n4)c(=O)n1c23 (centres undefined) | inconclusive: -6.75% | 
CCOc1ccc(C)cc1S(=O)(=O)Nc1ccc(Cl)cn1 | inconclusive: -9.51% | 
O=C(/C=C/c1ccc([N+](=O)[O-])cc1)OCC(=O)N1CCOCC1 | inactive | 
C=CCNC(=O)c1ccccc1NC(=O)c1cccc2ccccc12 | inconclusive: 6.37% | 
Cc1ccc(-c2nc(C#N)c(NCc3cccc4c3OCO4)o2)cc1 | inactive | 
CCOc1ccc(C(=O)NCC(c2ccco2)N2CCc3ccccc3C2)cc1 (centres undefined) | inconclusive: -1.21% | 
Cc1ccc2c(c1)=C(c1sc(N(C)c3ccc(O)cc3)nc1O)C(=O)N=2 | inconclusive: 4.61% | 
S=C1SCN(Cc2cccnc2)CN1Cc1ccccc1 |  | inconclusive: 11.2 µM [falling, partial curve]
COC(=O)c1cn(NC(=O)c2ccc3c(c2)OCO3)c(=O)c2ccccc12 | inconclusive: -10.8% | 
O=C(O)C1CCN(c2ccc(S(=O)(=O)N3CCCCC3)cc2[N+](=O)[O-])CC1 | inactive | 
O=C(/C=C/c1ccc([N+](=O)[O-])cc1)Nc1cccnc1 |  | inconclusive: 12.6 µM [falling, partial curve]
COc1cccc(NC(=S)NC2CC(C)(C)NC(C)(C)C2)c1 | inactive | 
CC(C)CCN1C(=O)c2ccc(C(=O)OCC(=O)N(C)C3CCS(=O)(=O)C3)cc2C1=O (centres undefined) |  | inconclusive: 16.4 µM [falling, partial curve]
Cc1cc(C)c(C(N)=O)c(SCC(=O)c2cc(C)c(C)cc2C)n1 | inconclusive: 7.17% | 
CC(C)(C)NC(=O)Cn1c(SCC(N)=O)nc2ccccc21 | inactive | 
O=C(/C=C/c1cccs1)NCc1ccccc1 |  | inconclusive: 12.6 µM [falling, partial curve]
COc1cc2c(cc1OC)-c1cc(Nc3ccccc3C)nc(=O)n1CC2 |  | inconclusive: 8.91 µM [falling, partial curve, poor fit]
Cc1ccc(NC(=O)CCC(=O)NNC(=O)Nc2cccc(Cl)c2)c(C)c1 | inactive | 

Record cards, as listed above.
Cc1ccc(-c2nc(C#N)c(NCc3cccc4c3OCO4)o2)cc1 is listed as activity change, negative = inhibition: inactive
O=C(Nc1ccc(Cl)c([N+](=O)[O-])c1)c1ccc(NCCCN2CCOCC2)c([N+](=O)[O-])c1 is listed as activity change, negative = inhibition: inactive

(next part)

SMILES | activity change, negative = inhibition | Potency
COCCn1c(N)c(S(=O)(=O)c2cccs2)c2nc3ccccc3nc21 |  | inconclusive: 11.6 µM [rising, partial curve, poor fit]
Cc1ccccc1NC(=O)c1ccccn1 |  | inconclusive: 1.26 µM [falling, full curve]
CC1CN(C)C(C)CC1NCc1ccc2c(c1)OCO2 (centres undefined) | inconclusive: -0.255% | 
O=C(Nc1ccc(F)c(F)c1)c1cc(S(=O)(=O)N2CCc3ccccc32)ccc1F | inconclusive: -26% | 
CCOc1cc(/C=C2\SC(=O)N(c3ccc(O)cc3)C2=O)ccc1O |  | inconclusive: 22.4 µM [falling, partial curve]
C/C(=N/NC(=O)c1ccc(Br)s1)c1ccncc1 |  | inconclusive: 10 µM [falling, partial curve]
CN=c1scc(C)n1/N=C/c1ccc(O)cc1O |  | inconclusive: 20 µM [falling, partial curve]
CC1=C(C#N)S(=O)(=O)C(C#N)C(c2ccccc2)C1 (centres undefined) | inconclusive: 1.51% | 
Cc1ccc(-n2nc(C)c3c2OC(N)=C(C#N)C3c2ccco2)cc1 (centres undefined) | inconclusive: 9.14% | 
Cc1nc(NC(=O)/C=C/c2ccccc2)sc1C(=O)Nc1ccc(Cl)cc1 |  | inconclusive: 35.5 µM [falling, single point]
CS(=O)(=O)Nc1ccc(-c2n[nH]c(=S)n2-c2ccccc2)cc1 | inactive | 
CCCSC1=C(C#N)C(c2cccs2)C(C(=O)Nc2ccccc2)=C(C)N1 (centres undefined) | inconclusive: -4.27% | 
CCN(CC)S(=O)(=O)c1cccc(NC(=O)COC(=O)c2cc(C)oc2C)c1 |  | inconclusive: 4.11 µM [falling, partial curve, poor fit]
N#CC1=C(SCc2ccccc2)NC(=O)CC1c1ccco1 (centres undefined) | inconclusive: -5.17% | 
Cc1cc(C(=O)COC(=O)c2ccc(F)cc2F)c(C)n1C1CC1 | inconclusive: 6.16% | 
CCCOc1ccc(Cn2cnc3ccccc32)cc1 | inactive | 
CCOC(=O)c1c(/N=C/c2cc(OC)cc([N+](=O)[O-])c2O)sc(C)c1C | inactive | 
CCC(CC)c1nnc(NC(=O)CCS(=O)(=O)Cc2ccccc2)s1 |  | inconclusive: 7.08 µM [falling, partial curve]
COC(=O)N(C)c1nc2ccccc2s1 | inconclusive: 8.08% | 
COC(=O)c1c(NC(=O)/C=C/c2ccc3c(c2)OCO3)sc(C)c1C | inconclusive: -29.6% | 
CCn1c(CNc2ccc(F)cc2)nnc1SCCN1CCCCC1 | inactive | 
Cc1ccc2nc(-c3ccc(NC(=O)COC(=O)c4ccc(Br)o4)cc3)sc2c1 | inactive | 
CSC1=NC(C)(C)C=C(/C=C/c2c(Cl)cccc2Cl)N1 |  | inconclusive: 11.2 µM [falling, partial curve]
Cc1cc(OCCN2CCOCC2)ccc1Cl | inactive | 
O=C1c2cccnc2C(Nc2ccc(Br)cc2Br)N1Cc1cccs1 (centres undefined) | inactive | 
Cc1ccc(CN2C(=O)CCC2C(=O)NCCN(CC(C)C)CC(C)C)cc1 (centres undefined) |  | inconclusive: 16.4 µM [falling, partial curve]
CCc1sc(C(=O)NCCc2ccc(S(N)(=O)=O)cc2)cc1Br | inconclusive: -2.45% | 
